35 compounds from PubChem BioAssay AID1487 (National Center for Advancing Translational Sciences (NCATS), 2009) can be followed below.

This assay in a line: qHTS Assay for Modulators of Lamin A Splicing. Conditions: HeLa LMNA splicing GFP/RFP minigene ratio, 48 h. Summed up:
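S3 HeLa stable clones carrying a lamin A-EGFP splicing minigene plus DsRed2 were seeded at 600 cells/well in Opti-MEM with 2% FBS, pin-dosed and incubated 48 h at 37°C. Acumen cytometry (488 nm) gave the GFP/RFP total-intensity ratio.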
(In general: Quantitative high-throughput screening tests each substance at several concentrations.)

The mark [1] stands for this setting: measured here: RFP viability control channel.
[2] abbreviates: measured here: GFP splicing reporter channel.

Some of the results follow. These are further read-outs of the screen, such as a control signal, another cell line or another target. No call is given for them. The list favours compounds with an active or inconclusive main result. Potencies come from curve fits of mixed quality, noted in brackets.

As a reminder, the AC50 is the midpoint of the concentration-response curve, whichever way the signal moves. Turning to `C/C=C(/C)C(=O)O[C@@H]1c2c(ccc3ccc(=O)oc23)OC(C)(C)[C@@H]1OC(=O)/C(C)=C\C`, the AC50 under setting [1] was 35.5 µM [rising, single point]. Same read-out and setting: under `O=C(NNS(=O)(=O)c1ccc(F)cc1)c1sccc1-n1cccc1` stands 25.1 µM [rising, single point].

As for `COc1ccc(NC(=O)CSc2nc3[nH]ncc3c(=O)n2-c2ccccc2C)cc1OC`, under setting [2], the AC50 was 8.91 µM [rising, partial curve, poor fit]. As to `COc1ccc(Oc2ncc3nc(-c4cn(C)c5ccccc45)c(=O)n(C4CC4)c3n2)cc1`, the AC50 reads like this: under setting [2], 17.8 µM [falling, partial curve, poor fit]; under setting [1], 14.1 µM [falling, partial curve]. As to `COC(=O)c1cc(NC(=O)c2sc3ncn(Cc4cccc(F)c4)c(=O)c3c2C)cc(C(=O)OC)c1`, the AC50 is 0.891 µM [falling, full curve, poor fit] under setting [2] and 35.5 µM [falling, partial curve, poor fit] under setting [1]. `CSc1nc(N)c2ncn([C@@H]3O[C@H](COP(=O)(O)OP(=O)(O)O)[C@H](O)[C@H]3O)c2n1`: under setting [1], the AC50 is 0.00501 µM [falling, full curve, poor fit]. Same read-out and setting: under `CC(=O)c1ccc(NC(=O)Nc2ccc([N+](=O)[O-])cc2)cc1` stands 12.6 µM [rising, single point]. Regarding `CC(=O)Oc1ccc(/C=N/NC(=O)CCSc2ccccc2)cc1`, the AC50 under setting [2] is 35.5 µM [falling, single point]. Turning to `Cc1ccoc1C(=O)NCCNc1ccc(Cl)cc1[N+](=O)[O-]`, under setting [2], the AC50 was 10 µM [rising, partial curve]. As to `CC(C)n1cc(/C=C2/NC(=O)N(c3cccc(Cl)c3)C2=O)c2ccccc21`, under setting [1], the AC50 was 20 µM [rising, single point]. As for `Cc1ccc(-c2n[nH]c(=O)c3ccccc23)cc1N`, the AC50 is, setting by setting: under setting [2], 22.4 µM [rising, single point]; under setting [1], 20 µM [rising, single point]. Consider `COC(=O)c1cc(=O)n(-c2ccc(F)cc2)c(=Nc2ccc(F)cc2)s1`, for which the AC50 under setting [1] was 0.0251 µM [rising, full curve, poor fit]. As for `NS(=O)(=O)c1cc2c(cc1Cl)N[C@@H](C(Cl)Cl)NS2(=O)=O`, the AC50 reads like this: under setting [2], 0.00282 µM [falling, full curve, poor fit]; under setting [1], 0.447 µM [rising, full curve]. In the case of `COC(=O)c1ccc(C#Cc2ccccc2)o1`, the AC50 is, setting by setting: under setting [2], 1.12 µM [falling, full curve]; under setting [1], 0.0631 µM [falling, full curve, poor fit]. Turning to `CCOc1cc(N2CCOCC2)c(OCC)cc1NC(=O)Cn1[nH]c(=O)c2ccccc2c1=O`, the AC50 under setting [2] is 4.47 µM [rising, single point] and the concentration at half-maximal activity (AC50) under setting [1] was 3.98 µM [rising, single point].

On to `Cc1ccc(NC(=O)Nc2cccs2)c(Cl)c1`, for which the half-maximal activity concentration (AC50) was 3.98 µM [rising, full curve] under setting [2] and 10 µM [rising, partial curve] under setting [1]. With `Cc1csc(=Nc2cccnc2)n1CC1CCCCC1`, the AC50 under setting [2] is 35.5 µM [rising, single point] and the AC50 under setting [1] is 31.6 µM [rising, single point].

For the compound `COc1ccccc1N/C(=N/S(=O)(=O)c1ccc(C)cc1)c1ccccc1`, the AC50 under setting [2] was 11.2 µM [rising, single point]. Regarding `COc1ccc(CNC(=O)CSc2n[nH]c(-c3ccc(OC)cc3)n2)cc1`, the concentration at half-maximal activity (AC50) is, setting by setting: under setting [2], 0.708 µM [rising, full curve, poor fit]; under setting [1], 35.5 µM [rising, single point]. For `CCN(Cc1ccccc1)C(=S)Nc1cc(C(=O)OC)ccc1C(=O)OC`, the AC50 under setting [2] was 20 µM [rising, single point] and the AC50 under setting [1] was 35.5 µM [rising, single point]. As for `O[C@@](CCN1CCCCC1)(c1ccccc1)[C@@H]1C[C@H]2C=C[C@@H]1C2`, under setting [1], the AC50 was 5.62 µM [rising, partial curve, poor fit]. Regarding `Cc1ccc(N2CCN(S(=O)(=O)c3ccc(F)cc3)CC2)c(C)c1`, the concentration at half-maximal activity (AC50) under setting [2] is 35.5 µM [rising, single point] and the AC50 under setting [1] is 31.6 µM [rising, single point]. As to `COc1ccccc1-n1cnnc1SCC(=O)NC1CCS(=O)(=O)C1` (stereo not given), the AC50 under setting [2] is 0.282 µM [rising, partial curve]. With `O=C(c1ccco1)N1c2ccccc2Sc2ccccc21`, under setting [1], the AC50 was 35.5 µM [rising, single point]. On to `S=C(Nc1ccc(Cl)cc1)Nc1cccc2cnccc12`, for which the AC50 by setting is: under setting [2], 15.8 µM [rising, single point]; under setting [1], 25.1 µM [rising, single point]. As for `COc1cc(NC(=O)c2cc(Br)cc(C)c2OC)ccc1NC(=O)C(C)C`, under setting [1], the AC50 is 35.5 µM [rising, single point].

Regarding `COc1ccc2nc(NC(=O)CSC3=NCCS3)sc2c1`, the AC50 is 20 µM [rising, single point] under setting [2] and 20 µM [rising, single point] under setting [1].

For the compound `Cn1c(NC(=O)C[n+]2cc(-c3ccc(Cl)cc3)n3c2CCC3)cc(=O)n(C)c1=O`, under setting [1], the AC50 was 31.6 µM [rising, single point]. Same read-out and setting: under `CC(=O)c1c(C(C)=O)c(C)n(Cc2ccc3c(c2)OCO3)c1C` stands 11.2 µM [rising, partial curve]; under `O=C(N/N=C/c1c(-c2ccccc2)[nH]c2ccccc12)c1cccnc1`, 7.08 µM [rising, full curve]. As for `COC(=O)/C=C/c1ccc2c(c1)OCO2`, the AC50 under setting [2] is 1 µM [falling, single point].

As to `CC(C)(C)C(=O)/C=c1\[nH]c(=O)/c(=C\c2ccc(F)cc2)s1`, the AC50 under setting [2] is 35.5 µM [rising, single point] and the AC50 under setting [1] was 35.5 µM [rising, single point]. For `CNC(=S)SCCOc1ccccc1C`, the AC50 under setting [1] is 0.794 µM [rising, full curve, poor fit].

For `COc1ccc(C(=O)NNC(=O)CCCCC(=O)NNC(=O)c2ccc(OC)cc2)cc1`, under setting [1], the AC50 is 0.00316 µM [falling, full curve].

Turning to `O=C(c1cccc(Cl)c1)N1CCC(=O)N(C(COCc2ccccc2)Cc2ccccc2)CC1` (stereo not given), the AC50 reads like this: under setting [2], 35.5 µM [rising, single point]; under setting [1], 35.5 µM [rising, single point].
